This assay concerns the target Full-length human Hsp90β (human) (UniProt P08238). Kind of assay: ITC; 700 to 800 μM FKBP construct injected into 50 μM Hsp90 or Hsp70 protein in the cell; ITC200; 20 mM Tris, 300 mM NaCl, 1 mM EDTA pH 7.5; both purified.

Chains of the proteins cited; added tags and fusions are not shown. Residues count along the entry.
UniProt P08238: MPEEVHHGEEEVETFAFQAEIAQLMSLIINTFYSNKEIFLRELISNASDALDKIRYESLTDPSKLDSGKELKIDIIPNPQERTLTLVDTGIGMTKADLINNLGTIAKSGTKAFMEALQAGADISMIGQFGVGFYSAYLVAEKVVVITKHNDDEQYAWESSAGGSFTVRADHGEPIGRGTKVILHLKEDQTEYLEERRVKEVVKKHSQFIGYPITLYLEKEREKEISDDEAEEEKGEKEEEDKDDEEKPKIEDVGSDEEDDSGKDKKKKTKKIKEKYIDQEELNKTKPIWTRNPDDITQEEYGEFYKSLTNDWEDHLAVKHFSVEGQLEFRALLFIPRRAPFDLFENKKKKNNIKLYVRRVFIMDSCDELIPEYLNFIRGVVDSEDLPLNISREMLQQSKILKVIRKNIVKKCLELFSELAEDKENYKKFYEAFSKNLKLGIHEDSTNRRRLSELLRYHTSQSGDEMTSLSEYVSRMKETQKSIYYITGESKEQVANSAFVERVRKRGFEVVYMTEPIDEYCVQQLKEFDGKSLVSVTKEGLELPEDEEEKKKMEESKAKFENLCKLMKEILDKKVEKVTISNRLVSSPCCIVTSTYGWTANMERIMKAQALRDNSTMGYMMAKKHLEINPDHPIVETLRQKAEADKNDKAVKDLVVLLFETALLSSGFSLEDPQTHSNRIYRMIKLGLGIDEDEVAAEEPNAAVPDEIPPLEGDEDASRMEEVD
UniProt Q14318, residues 92-207: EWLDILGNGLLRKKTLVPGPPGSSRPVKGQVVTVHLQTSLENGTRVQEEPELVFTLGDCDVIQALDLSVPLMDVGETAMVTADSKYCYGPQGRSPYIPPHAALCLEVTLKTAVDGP

No constants are given. Whether binding was seen depends on the method and setting.

Regarding “FKBP38 immunophilin domain, amino acids 92-207 (FKBP^92-207) (from UniProt Q14318 92-207) (domain or fragment)”, the binding entry was “no binding (tested: 700 to 800 μM injected into 50 μM)”.

The values are drawn from publication PMC5344419, “The structure of FKBP38 in complex with the MEEVD tetratricopeptide binding-motif of Hsp90” (PLoS ONE, 2017).
